Assay results reported in the supplement of paper PMC12823440, “Inhibitors supercharge kinase turnover through native proteolytic circuits” (Nature, 2025).
Structures can show the parent of a compound that is named as a salt. The list shows a part of the results. Hit calls seldom repeat between salt and free forms of one compound.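 In K562 cells expressing nanoluciferase-fused kinases, luminescence was recorded at 4 h intervals between 2 and 18 h, normalized as percent of control with DMSO at 100% and a positive control at 0%. A significant (2 sigma) signal drop marks a time point as decreased. The authors' rule for a hit is not shown and takes in more than the number of time points.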

By UniProt entry, the sequences of proteins in these tests, tags left out. Where a name states a change or a piece, a line headed by the entry shows the natural chain unless it says otherwise.
UniProt O15530: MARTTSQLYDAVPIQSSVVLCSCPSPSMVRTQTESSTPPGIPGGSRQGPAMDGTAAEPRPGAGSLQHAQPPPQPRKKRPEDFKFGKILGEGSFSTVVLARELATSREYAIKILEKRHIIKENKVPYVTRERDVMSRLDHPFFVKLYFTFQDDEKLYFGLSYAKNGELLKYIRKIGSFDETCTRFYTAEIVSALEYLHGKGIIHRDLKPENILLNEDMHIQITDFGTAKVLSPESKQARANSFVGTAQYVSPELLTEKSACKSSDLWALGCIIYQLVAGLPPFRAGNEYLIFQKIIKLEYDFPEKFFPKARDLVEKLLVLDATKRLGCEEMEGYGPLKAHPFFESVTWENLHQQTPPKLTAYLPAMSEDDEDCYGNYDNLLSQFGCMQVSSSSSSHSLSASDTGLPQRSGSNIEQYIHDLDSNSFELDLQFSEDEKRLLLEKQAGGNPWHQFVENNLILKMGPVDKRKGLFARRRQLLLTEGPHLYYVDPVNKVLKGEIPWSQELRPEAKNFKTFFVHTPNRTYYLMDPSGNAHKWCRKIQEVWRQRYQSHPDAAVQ
UniProt P42356, whole entry, looked up: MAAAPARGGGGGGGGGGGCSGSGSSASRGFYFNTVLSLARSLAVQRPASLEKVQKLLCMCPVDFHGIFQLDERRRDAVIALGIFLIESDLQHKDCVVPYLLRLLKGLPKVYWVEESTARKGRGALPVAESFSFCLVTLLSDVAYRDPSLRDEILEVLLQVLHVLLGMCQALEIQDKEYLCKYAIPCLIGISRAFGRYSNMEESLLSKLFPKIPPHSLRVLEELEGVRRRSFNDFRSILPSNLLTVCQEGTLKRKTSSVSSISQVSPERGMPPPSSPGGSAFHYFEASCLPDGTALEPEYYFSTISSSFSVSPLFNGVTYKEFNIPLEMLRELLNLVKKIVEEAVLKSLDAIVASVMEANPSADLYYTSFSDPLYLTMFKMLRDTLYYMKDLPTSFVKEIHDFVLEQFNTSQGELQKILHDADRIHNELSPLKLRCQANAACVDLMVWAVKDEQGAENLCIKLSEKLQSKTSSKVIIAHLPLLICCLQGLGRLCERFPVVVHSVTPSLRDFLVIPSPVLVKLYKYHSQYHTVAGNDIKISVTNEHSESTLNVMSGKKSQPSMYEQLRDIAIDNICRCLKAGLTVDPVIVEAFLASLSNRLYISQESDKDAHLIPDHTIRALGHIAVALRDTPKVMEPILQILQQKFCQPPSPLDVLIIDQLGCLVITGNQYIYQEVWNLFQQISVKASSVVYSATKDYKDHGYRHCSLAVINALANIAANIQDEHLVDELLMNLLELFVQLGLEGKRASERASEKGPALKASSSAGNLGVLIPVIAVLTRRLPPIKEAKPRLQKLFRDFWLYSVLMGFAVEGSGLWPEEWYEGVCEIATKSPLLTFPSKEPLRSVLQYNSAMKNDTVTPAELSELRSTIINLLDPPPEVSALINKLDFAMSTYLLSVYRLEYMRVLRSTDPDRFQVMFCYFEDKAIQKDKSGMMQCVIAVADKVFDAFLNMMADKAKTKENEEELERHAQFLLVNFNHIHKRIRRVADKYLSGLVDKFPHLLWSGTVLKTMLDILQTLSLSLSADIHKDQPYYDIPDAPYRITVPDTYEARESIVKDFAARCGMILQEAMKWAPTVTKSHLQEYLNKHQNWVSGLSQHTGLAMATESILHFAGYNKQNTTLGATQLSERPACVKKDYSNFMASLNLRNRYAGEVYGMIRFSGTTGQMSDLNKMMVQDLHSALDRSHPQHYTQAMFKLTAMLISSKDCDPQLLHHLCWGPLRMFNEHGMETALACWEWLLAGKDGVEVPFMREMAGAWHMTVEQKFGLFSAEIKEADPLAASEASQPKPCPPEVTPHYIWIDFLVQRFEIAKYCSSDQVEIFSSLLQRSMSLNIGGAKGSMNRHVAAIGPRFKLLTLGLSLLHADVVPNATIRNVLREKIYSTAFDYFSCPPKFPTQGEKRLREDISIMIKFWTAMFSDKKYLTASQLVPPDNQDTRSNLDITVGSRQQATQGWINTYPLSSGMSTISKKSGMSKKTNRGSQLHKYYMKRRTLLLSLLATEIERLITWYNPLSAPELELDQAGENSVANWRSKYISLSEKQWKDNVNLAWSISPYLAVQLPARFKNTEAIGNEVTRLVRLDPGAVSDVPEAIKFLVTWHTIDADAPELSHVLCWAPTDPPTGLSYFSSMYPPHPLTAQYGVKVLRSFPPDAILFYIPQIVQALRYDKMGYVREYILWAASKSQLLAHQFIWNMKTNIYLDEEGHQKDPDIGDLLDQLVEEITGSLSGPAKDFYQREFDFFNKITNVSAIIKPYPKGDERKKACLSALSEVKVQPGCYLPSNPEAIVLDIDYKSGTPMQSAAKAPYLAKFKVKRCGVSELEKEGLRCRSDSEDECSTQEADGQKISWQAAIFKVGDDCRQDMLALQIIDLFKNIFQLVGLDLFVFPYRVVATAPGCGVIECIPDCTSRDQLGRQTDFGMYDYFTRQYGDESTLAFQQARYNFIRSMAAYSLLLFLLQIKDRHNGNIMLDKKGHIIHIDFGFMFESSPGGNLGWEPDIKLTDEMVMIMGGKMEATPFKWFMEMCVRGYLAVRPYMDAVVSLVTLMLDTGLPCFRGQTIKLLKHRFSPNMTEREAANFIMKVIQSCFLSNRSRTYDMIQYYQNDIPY
UniProt Q9UBF8: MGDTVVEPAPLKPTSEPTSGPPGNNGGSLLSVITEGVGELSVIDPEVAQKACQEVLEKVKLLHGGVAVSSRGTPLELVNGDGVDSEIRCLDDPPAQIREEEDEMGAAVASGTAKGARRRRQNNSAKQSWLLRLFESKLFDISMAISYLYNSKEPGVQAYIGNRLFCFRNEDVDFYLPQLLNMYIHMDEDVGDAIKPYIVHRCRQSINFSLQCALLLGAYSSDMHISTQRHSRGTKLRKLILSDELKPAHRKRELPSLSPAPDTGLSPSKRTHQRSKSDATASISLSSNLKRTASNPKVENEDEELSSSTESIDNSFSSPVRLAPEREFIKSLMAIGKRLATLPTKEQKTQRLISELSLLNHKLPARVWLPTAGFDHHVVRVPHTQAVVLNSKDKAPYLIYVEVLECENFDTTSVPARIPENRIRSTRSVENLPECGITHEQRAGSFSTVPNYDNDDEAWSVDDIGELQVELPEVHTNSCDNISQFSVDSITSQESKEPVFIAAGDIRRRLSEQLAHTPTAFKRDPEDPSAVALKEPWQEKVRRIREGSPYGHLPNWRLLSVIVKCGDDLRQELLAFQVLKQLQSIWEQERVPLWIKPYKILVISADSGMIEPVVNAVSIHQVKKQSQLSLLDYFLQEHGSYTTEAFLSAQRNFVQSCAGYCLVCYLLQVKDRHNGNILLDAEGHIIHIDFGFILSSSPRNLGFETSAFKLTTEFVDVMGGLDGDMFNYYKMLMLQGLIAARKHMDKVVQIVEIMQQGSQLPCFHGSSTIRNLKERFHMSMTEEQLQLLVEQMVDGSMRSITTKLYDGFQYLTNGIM
UniProt Q05397, whole entry, looked up: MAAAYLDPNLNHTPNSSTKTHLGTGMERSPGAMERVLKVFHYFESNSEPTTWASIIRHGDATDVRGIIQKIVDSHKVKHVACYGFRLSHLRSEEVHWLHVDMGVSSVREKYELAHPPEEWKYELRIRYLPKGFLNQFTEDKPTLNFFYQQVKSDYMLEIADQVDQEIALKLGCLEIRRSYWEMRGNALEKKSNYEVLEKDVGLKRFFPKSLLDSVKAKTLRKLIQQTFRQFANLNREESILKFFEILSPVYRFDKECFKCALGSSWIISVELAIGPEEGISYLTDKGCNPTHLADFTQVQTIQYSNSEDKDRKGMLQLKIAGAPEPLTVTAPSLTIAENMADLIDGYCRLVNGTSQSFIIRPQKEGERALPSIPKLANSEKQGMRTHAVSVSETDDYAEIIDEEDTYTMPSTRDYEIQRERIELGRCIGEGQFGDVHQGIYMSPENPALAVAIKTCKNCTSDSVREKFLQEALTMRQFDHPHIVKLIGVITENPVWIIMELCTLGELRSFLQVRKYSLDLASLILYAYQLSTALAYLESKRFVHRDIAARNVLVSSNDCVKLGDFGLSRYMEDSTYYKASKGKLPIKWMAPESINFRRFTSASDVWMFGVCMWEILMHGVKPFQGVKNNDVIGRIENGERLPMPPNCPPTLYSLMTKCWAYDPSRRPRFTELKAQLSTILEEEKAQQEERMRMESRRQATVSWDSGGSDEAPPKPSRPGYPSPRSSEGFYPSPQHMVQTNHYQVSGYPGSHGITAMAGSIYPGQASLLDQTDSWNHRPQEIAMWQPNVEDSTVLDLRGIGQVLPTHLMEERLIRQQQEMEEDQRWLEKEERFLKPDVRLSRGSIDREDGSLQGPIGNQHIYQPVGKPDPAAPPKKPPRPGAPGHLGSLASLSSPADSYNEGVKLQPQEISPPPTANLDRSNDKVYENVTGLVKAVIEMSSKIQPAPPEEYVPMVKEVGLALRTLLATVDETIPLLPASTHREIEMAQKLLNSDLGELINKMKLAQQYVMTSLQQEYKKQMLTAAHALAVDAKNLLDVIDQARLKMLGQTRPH
UniProt Q14289, whole entry, looked up: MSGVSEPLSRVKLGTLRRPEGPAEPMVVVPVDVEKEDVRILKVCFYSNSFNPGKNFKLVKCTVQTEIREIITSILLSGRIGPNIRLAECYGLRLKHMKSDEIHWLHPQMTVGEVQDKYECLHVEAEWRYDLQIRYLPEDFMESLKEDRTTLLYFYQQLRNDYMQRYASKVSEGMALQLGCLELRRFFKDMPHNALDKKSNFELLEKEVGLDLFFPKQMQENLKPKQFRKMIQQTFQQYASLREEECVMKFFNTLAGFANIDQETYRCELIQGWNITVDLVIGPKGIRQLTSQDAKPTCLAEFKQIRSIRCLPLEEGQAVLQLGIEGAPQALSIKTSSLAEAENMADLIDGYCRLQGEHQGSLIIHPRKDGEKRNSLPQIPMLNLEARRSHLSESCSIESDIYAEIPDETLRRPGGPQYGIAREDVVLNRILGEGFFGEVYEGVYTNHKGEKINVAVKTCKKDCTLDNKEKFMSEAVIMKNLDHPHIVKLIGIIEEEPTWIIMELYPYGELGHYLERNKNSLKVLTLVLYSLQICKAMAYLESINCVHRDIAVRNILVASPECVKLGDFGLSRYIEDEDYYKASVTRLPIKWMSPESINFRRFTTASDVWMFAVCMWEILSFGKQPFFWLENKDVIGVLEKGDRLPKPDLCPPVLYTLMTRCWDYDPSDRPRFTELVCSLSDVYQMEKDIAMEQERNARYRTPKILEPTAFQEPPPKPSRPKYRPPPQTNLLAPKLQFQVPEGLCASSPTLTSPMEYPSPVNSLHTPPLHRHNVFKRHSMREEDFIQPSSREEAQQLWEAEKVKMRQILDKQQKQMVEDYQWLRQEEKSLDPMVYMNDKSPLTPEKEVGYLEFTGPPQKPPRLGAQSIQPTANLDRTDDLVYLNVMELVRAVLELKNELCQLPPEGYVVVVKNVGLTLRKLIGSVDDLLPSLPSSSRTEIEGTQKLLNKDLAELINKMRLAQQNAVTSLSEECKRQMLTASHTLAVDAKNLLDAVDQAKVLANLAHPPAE

How the values were obtained:
Assay in all cases: kinase-Nluc reporter destabilization hit call (1 = scored as downregulated) (binary); higher = compound decreases kinase abundance
Settings in all cases: K562; 2-18 h
[1] = molecular target: PDPK1 (UniProt O15530)
[2] = molecular target: PIK4CA (UniProt P42356)
[3] = molecular target: PIK4CB (UniProt Q9UBF8)
[4] = molecular target: PLK1 (UniProt P53350)
[5] = molecular target: PRKAA1 (UniProt Q13131)
[6] = molecular target: PRKCA (UniProt P17252)
[7] = molecular target: PTK2 (UniProt Q05397)
[8] = molecular target: PTK2B (UniProt Q14289)
[9] = molecular target: RAF1 (UniProt P04049)
[10] = molecular target: RAF1_S257L (clone: RAF1_mut) (UniProt P04049)

Measured: kinase-Nluc reporter destabilization hit call

COc1ccc2c(OCc3nnc4ccc(-c5ccccc5)nn34)ccnc2c1 (2 µM)
inactive: [1] 0 | [2] 0 | [3] 0 | [4] 0 | [5] 0 | [6] 0 | [7] 0 | [8] 0 | [9] 0 | [10] 0

COCCNc1nc2ccc(C#CC3(O)CCCCC3)cc2n1-c1ccnc(N)n1 (10 µM)
inactive: [1] 0 | [2] 0 | [3] 0 | [4] 0 | [5] 0 | [6] 0 | [7] 0 | [8] 0 | [9] 0 | [10] 0

NC(=O)c1nnc(N[C@@H]2CCCC[C@@H]2N)nc1Nc1cccc2cc[nH]c12 (10 µM)
inactive: [1] 0 | [2] 0 | [3] 0 | [4] 0 | [5] 0 | [6] 0 | [7] 0 | [8] 0 | [9] 0 | [10] 0

Cn1cc(-c2cnn3c(N)c(Br)c([C@@H]4CCCNC4)nc23)cn1 (2.5 µM)
inactive: [1] 0 | [2] 0 | [3] 0 | [4] 0 | [5] 0 | [6] 0 | [7] 0 | [8] 0 | [9] 0 | [10] 0

O=C(Nc1ccc(CN2CCOCC2)cc1)c1ccc(-c2cccc(Cl)c2)o1 (10 µM)
inactive: [1] 0 | [2] 0 | [3] 0 | [4] 0 | [5] 0 | [6] 0 | [7] 0 | [8] 0 | [9] 0 | [10] 0

Cc1ccccc1-n1c([C@H](C)Nc2nc(N)nc3nc[nH]c23)nc2cccc(C)c2c1=O [CAL-130 (Hydrochloride)] (10 µM)
inactive: [1] 0 | [2] 0 | [3] 0 | [4] 0 | [5] 0 | [6] 0 | [7] 0 | [8] 0 | [9] 0 | [10] 0

CCN1CCN(Cc2ccc(Nc3ncc(F)c(-c4cc(F)c5nc(C)n(C(C)C)c5c4)n3)nc2)CC1 [Abemaciclib (methanesulfonate)] (10 µM)
inactive: [1] 0 | [2] 0 | [3] 0 | [4] 0 | [5] 0 | [6] 0 | [7] 0 | [8] 0 | [9] 0 | [10] 0

Cc1ccc(OCCSc2ncccn2)c(Br)c1 [ZLN024 (hydrochloride)] (10 µM)
inactive: [1] 0 | [2] 0 | [3] 0 | [4] 0 | [5] 0 | [6] 0 | [7] 0 | [8] 0 | [9] 0 | [10] 0

CNc1nc(Nc2ccc(C(=O)N3CCOCC3)cc2OC)nc2[nH]cc(Cl)c12 (2.5 µM)
inactive: [1] 0 | [2] 0 | [3] 0 | [4] 0 | [5] 0 | [6] 0 | [7] 0 | [8] 0 | [9] 0 | [10] 0

NC(=O)c1ccc2[nH]ccc2c1 (10 µM)
inactive: [1] 0 | [2] 0 | [3] 0 | [4] 0 | [5] 0 | [6] 0 | [7] 0 | [8] 0 | [9] 0 | [10] 0

NC(=O)c1ccc(-c2nc(-c3ccc4c(c3)OCCO4)c(-c3ccccn3)[nH]2)cc1 (10 µM)
inactive: [1] 0 | [2] 0 | [3] 0 | [4] 0 | [5] 0 | [6] 0 | [7] 0 | [8] 0 | [9] 0 | [10] 0

CC(C)(C)c1cc(O)ccc1O (10 µM)
inactive: [1] 0 | [2] 0 | [3] 0 | [4] 0 | [5] 0 | [6] 0 | [7] 0 | [8] 0 | [9] 0 | [10] 0

O=C(NCCN1CCOCC1)c1cc2c(Oc3ccc(NC(=O)C4(C(=O)Nc5ccc(F)cc5)CC4)cc3)ccnc2[nH]1 [Tyrosine kinase inhibitor] (10 µM)
inactive: [1] 0 | [2] 0 | [3] 0 | [4] 0 | [5] 0 | [6] 0 | [7] 0 | [8] 0 | [9] 0 | [10] 0

CCCS(=O)(=O)Nc1ccc(F)c(C(=O)c2c[nH]c3ncc(-c4ccc(Cl)cc4)cc23)c1F [Vemurafenib] (10 µM)
inactive: [1] 0 | [2] 0 | [3] 0 | [4] 0 | [5] 0 | [6] 0 | [7] 0 | [8] 0 | [9] 0 | [10] 0

CN1CCC(c2cc(-c3ccncc3)c(-c3ccc(F)cc3)[nH]2)CC1 (10 µM)
inactive: [1] 0 | [2] 0 | [3] 0 | [4] 0 | [5] 0 | [6] 0 | [7] 0 | [8] 0 | [9] 0 | [10] 0

C[C@H](c1ccnc(Nc2nc3ccc(-c4cc(N(C)C)ncn4)cc3[nH]2)c1)N1CCN(C(=O)CC(F)(F)F)CC1 (2.5 µM)
inactive: [1] 0 | [2] 0 | [3] 0 | [4] 0 | [5] 0 | [6] 0 | [7] 0 | [8] 0 | [9] 0 | [10] 0

Arranged by SMILES length (smallest number first): part of the list above
COCCNc1nc2ccc(C#CC3(O)CCCCC3)cc2n1-c1ccnc(N)n1 (10 µM)
inactive: [1] 0 | [2] 0 | [3] 0 | [4] 0 | [5] 0 | [6] 0 | [7] 0 | [8] 0 | [9] 0 | [10] 0

NC(=O)c1ccc(-c2nc(-c3ccc4c(c3)OCCO4)c(-c3ccccn3)[nH]2)cc1 (10 µM)
inactive: [1] 0 | [2] 0 | [3] 0 | [4] 0 | [5] 0 | [6] 0 | [7] 0 | [8] 0 | [9] 0 | [10] 0

O=C(NCCN1CCOCC1)c1cc2c(Oc3ccc(NC(=O)C4(C(=O)Nc5ccc(F)cc5)CC4)cc3)ccnc2[nH]1 [Tyrosine kinase inhibitor] (10 µM)
inactive: [1] 0 | [2] 0 | [3] 0 | [4] 0 | [5] 0 | [6] 0 | [7] 0 | [8] 0 | [9] 0 | [10] 0

Next part.

CNC(=O)c1c(F)cccc1Nc1nc(Nc2cc3c(cc2OC)CCN3C(=O)CN(C)C)nc2[nH]ccc12 (10 µM)
inactive: [1] 0 | [2] 0 | [3] 0 | [4] 0 | [5] 0 | [6] 0 | [7] 0 | [8] 0 | [9] 0 | [10] 0

Nc1nc(F)nc2c1ncn2[C@@H]1O[C@H](CO)[C@@H](O)[C@@H]1O [Fludarabine] (10 µM)
inactive: [1] 0 | [2] 0 | [3] 0 | [4] 0 | [5] 0 | [6] 0 | [7] 0 | [8] 0 | [9] 0 | [10] 0

C=CC(=O)Nc1ccc(CN2C(=O)N(c3cc(OC)cc(OC)c3)Cc3cnc(Nc4ccc(N5CCN(C)CC5)cc4)nc32)cc1 (2.5 µM)
inactive: [1] 0 | [2] 0 | [3] 0 | [4] 0 | [5] 0 | [6] 0 | [7] 0 | [8] 0 | [9] 0 | [10] 0

Cc1cc(Nc2ncnc3ccc(NC4=NC(C)(C)CO4)cc23)ccc1Oc1ccn2ncnc2c1 [Tucatinib (hemiethanolate)] (2.5 µM)
inactive: [1] 0 | [2] 0 | [3] 0 | [4] 0 | [5] 0 | [6] 0 | [7] 0 | [8] 0 | [9] 0 | [10] 0

Oc1cc(O)c2cc(O)c(-c3cc(O)c(O)c(O)c3)[o+]c2c1 [Delphinidin (chloride)] (10 µM)
inactive: [1] 0 | [2] 0 | [3] 0 | [4] 0 | [5] 0 | [6] 0 | [7] 0 | [8] 0 | [9] 0 | [10] 0

CN(C)C(=O)Cn1cc(-c2ccc(-c3cncc4ccccc34)cc2)cn1 (10 µM)
inactive: [1] 0 | [2] 0 | [3] 0 | [4] 0 | [5] 0 | [6] 0 | [7] 0 | [8] 0 | [9] 0 | [10] 0

Cc1cccc(-c2[nH]ncc2-c2ccc(F)c(-c3cnn(CCO)c3)c2)n1 (10 µM)
inactive: [1] 0 | [2] 0 | [3] 0 | [4] 0 | [5] 0 | [6] 0 | [7] 0 | [8] 0 | [9] 0 | [10] 0

COc1cc2ncc(-c3ccccc3)nc2cc1OC [Tyrphostin AG1296] (10 µM)
inactive: [1] 0 | [2] 0 | [3] 0 | [4] 0 | [5] 0 | [6] 0 | [7] 0 | [8] 0 | [9] 0 | [10] 0

Cc1[nH]c(/C=C2\C(=O)Nc3ccc(F)cc32)c(C)c1C(=O)N[C@H]1CCN(C(=O)N(C)C)C1 [Vorolanib] (10 µM)
inactive: [1] 0 | [2] 0 | [3] 0 | [4] 0 | [5] 0 | [6] 0 | [7] 0 | [8] 0 | [9] 0 | [10] 0

COc1cc2ncnc(Nc3ccc(Cl)cc3F)c2cc1OC (10 µM)
inactive: [1] 0 | [2] 0 | [3] 0 | [4] 0 | [5] 0 | [6] 0 | [7] 0 | [8] 0 | [9] 0 | [10] 0

Cc1ccc2nc(NCCN)c3ncc(C)n3c2c1 (2.5 µM)
inactive: [1] 0 | [2] 0 | [3] 0 | [4] 0 | [5] 0 | [6] 0 | [7] 0 | [8] 0 | [9] 0 | [10] 0

Cn1ncc(Cl)c1-c1cc(C(=O)N[C@H](CN)Cc2ccc(F)c(F)c2)oc1Cl [Uprosertib] (10 µM)
inactive: [1] 0 | [2] 0 | [3] 0 | [4] 0 | [5] 0 | [6] 0 | [7] 0 | [8] 0 | [9] 0 | [10] 0

O=c1cc(CN2CCOCC2)occ1OCCCCCSc1ccnc2cc(C(F)(F)F)ccc12 (10 µM)
inactive: [1] 0 | [2] 0 | [3] 0 | [4] 0 | [5] 0 | [6] 0 | [7] 0 | [8] 0 | [9] 0 | [10] 0
